Source: PubChem BioAssay AID686937 (Drosophila RNAi Screening Center, 2013)
The screen tested about 23,000 reagents; shown is a random part of those with a known target gene and a result. 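Reduced-secretion tags in replicate 1 do not always agree with the z-scores; no criterion for assigning the tags was given.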 Reagents against one gene are numbered here. Names joined by + are all predicted targets of the reagent. Further read-outs or replicates are left out here. Not given: the amount of reagent.

Screen: 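Genes in the fly needed for secretion of protein constitutively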 (primary screen)
System: Drosophila S2 cells expressing secreted horseradish peroxidase
Reagent: long dsRNA against Drosophila genes
Duration: about 5.5 days (5 days dsRNA, then 12 h reporter induction)
Challenge: reporter expression induced after 5 days of dsRNA, read 12 h later; inducer not stated
Measurement: 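Chemiluminescent measurement of peroxidase in the medium 12 h after reporter induction, following 5 days of dsRNA, given as a z-score per plate; higher means more secretion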
Reading the numbers: z-score: higher = more reporter secreted into medium

{"target": "CG5731", "reagent no.": 1, "z-score, replicate 1": -2.71}
{"target": "CG13991", "reagent no.": 1, "z-score, replicate 1": 0.19}
{"target": "CG18507", "reagent no.": 1, "z-score, replicate 1": 0.34}
{"target": "CG18507", "reagent no.": 2, "z-score, replicate 1": 0.82}
{"target": "CG14247", "reagent no.": 1, "z-score, replicate 1": -1.75}
{"target": "CG13481", "reagent no.": 1, "z-score, replicate 1": 0.22}
{"target": "CG15219", "reagent no.": 1, "z-score, replicate 1": -0.19}
{"target": "Rs1", "reagent no.": 1, "z-score, replicate 1": 0.3}
{"target": "Rsph3 (Radial spoke head protein 3)", "reagent no.": 1, "z-score, replicate 1": 0.6}
{"target": "Rsph3 (Radial spoke head protein 3)", "reagent no.": 2, "z-score, replicate 1": 0.32}
{"target": "CG3368", "reagent no.": 1, "z-score, replicate 1": 0.57}
{"target": "CG13085", "reagent no.": 1, "z-score, replicate 1": 0.23}
{"target": "Cbs (Cystathionine beta-synthase)", "reagent no.": 1, "z-score, replicate 1": 0.23}
{"target": "ksh (kish)", "reagent no.": 1, "z-score, replicate 1": -0.67}
{"target": "MnM (myomesin and myosin binding protein)", "reagent no.": 1, "z-score, replicate 1": 0.24}
{"target": "kto (kohtalo)", "reagent no.": 1, "z-score, replicate 1": 0.45}
{"target": "RpL37-2 (Ribosomal protein L37-2)", "reagent no.": 1, "z-score, replicate 1": 0.03}
{"target": "CG12692", "reagent no.": 1, "z-score, replicate 1": 0.32}
{"target": "MsrA (Methionine sulfoxide reductase A)", "reagent no.": 1, "z-score, replicate 1": 0.34}
{"target": "CG6304", "reagent no.": 1, "z-score, replicate 1": 0.16}
{"target": "CG1572", "reagent no.": 1, "z-score, replicate 1": -0.32}
{"target": "Atg14 (Autophagy-related 14)", "reagent no.": 1, "z-score, replicate 1": 0.19}
{"target": "ND-SGDH (NADH dehydrogenase (ubiquinone) SGDH subunit)", "reagent no.": 1, "z-score, replicate 1": 0.01}
{"target": "enok (enoki mushroom)", "reagent no.": 1, "z-score, replicate 1": -0.12}
{"target": "ZC3H3", "reagent no.": 1, "z-score, replicate 1": -4.84}
{"target": "moody", "reagent no.": 1, "z-score, replicate 1": 0.38}
{"target": "CG32695", "reagent no.": 1, "z-score, replicate 1": -0.26}
{"target": "GstD5 (Glutathione S transferase D5)", "reagent no.": 1, "z-score, replicate 1": 0.25}
{"target": "CG8100", "reagent no.": 1, "z-score, replicate 1": 0.44}
{"target": "mRpL43 (mitochondrial ribosomal protein L43)", "reagent no.": 1, "z-score, replicate 1": -0.19}
{"target": "mRpL43 (mitochondrial ribosomal protein L43)", "reagent no.": 2, "z-score, replicate 1": -0.58}
{"target": "Ubr3 (Ubr3 ubiquitin ligase)", "reagent no.": 1, "z-score, replicate 1": 0.22}
{"target": "Ubr3 (Ubr3 ubiquitin ligase)", "reagent no.": 2, "z-score, replicate 1": 0.18}
{"target": "CG1299", "reagent no.": 1, "z-score, replicate 1": 0.46}

Next part; the last 2 above are carried over.
{"target": "Ubr3 (Ubr3 ubiquitin ligase)", "reagent no.": 2, "z-score, replicate 1": 0.18}
{"target": "CG1299", "reagent no.": 1, "z-score, replicate 1": 0.46}
{"target": "ey (eyeless)", "reagent no.": 1, "z-score, replicate 1": 0.47}
{"target": "CG32706 + CG6999", "reagent no.": 1, "z-score, replicate 1": 0.48}
{"target": "CG13643", "reagent no.": 1, "z-score, replicate 1": 0}
{"target": "CG13643", "reagent no.": 2, "z-score, replicate 1": -0.08}
{"target": "CG13532", "reagent no.": 1, "z-score, replicate 1": 0.18}
{"target": "CG13114", "reagent no.": 1, "z-score, replicate 1": 0.25}
{"target": "galene", "reagent no.": 1, "z-score, replicate 1": 0.31}
{"target": "galene", "reagent no.": 2, "z-score, replicate 1": 0.51}
{"target": "Nost (Nostrin)", "reagent no.": 1, "z-score, replicate 1": -0.95}
{"target": "Nost (Nostrin)", "reagent no.": 2, "z-score, replicate 1": 0.03}
{"target": "CG5938", "reagent no.": 1, "z-score, replicate 1": 0.62}
{"target": "lt (light)", "reagent no.": 1, "z-score, replicate 1": 0.03}
{"target": "CG8202", "reagent no.": 1, "z-score, replicate 1": 0.23}
{"target": "Nepl21 (Neprilysin-like 21)", "reagent no.": 1, "z-score, replicate 1": 0.5}
{"target": "Cyp6a13 (Cytochrome P450 6a13)", "reagent no.": 1, "z-score, replicate 1": 0.61}
{"target": "CG17440", "reagent no.": 1, "z-score, replicate 1": 0.54}
{"target": "CG30349", "reagent no.": 1, "z-score, replicate 1": 0.19}
{"target": "CG30349", "reagent no.": 2, "z-score, replicate 1": 0.13}
